Source: US10617750B2, “Partner of SLD five 1 (PSF1)-derived peptide” (Vasculead Inc., priority 2012, dated 2020)
Part of at least one peptide drawing is inferred or uncertain, most often the ends. Some compounds share one wording; it may come from a single statement. No end group written: not given here.

How the values were obtained:
peptide specific CTL = assay: CTL inducibility of peptides (summary statement); type: cell-based
Text: According to the embodiments of the present invention, the phrase “having CTL inducibility” means that the peptide is recognized by a specific CTL. In other word, the peptide has an ability to induce a peptide specific CTL. […] The ability to induce the peptide specific CTL can be examined by, for example, determining whether or not a cytokine such as interferon-γ (IFN-γ) is produced by peptide-stimulated peripheral blood mononuclear cells (PBMCs) in response to antigen presenting cells which are pulsed with said peptide using the ELISA technique or the like. In addition, cytotoxic activity of the induced CTL can be determined by the ^51Cr-release assay and the like. The peptide of the present invention is preferred to have 8 to 14, more preferably 8 to 11 and especially, 9 or 10 amino acid residues in view of good recognition by CTL.
These all three peptides are located in the region from 79 to 100 of PSF1 (FIG. 3). […] (SEQ ID NO.:6) or […] (SEQ ID NO.: 8) or […]

[1] = tested on: peptide specific human CTL; assay: Human CTL induction assay (IFN-γ ELISPOT); type: cell-based; conditions: for Positive donor number: HLA-A0201 healthy volunteers, positive = difference of 50 or more peptide specific spots; for Donor positive percentage: positive donors / donors examined
Procedure: A human CTL induction assay was conducted under conditions with reference to a known report (Harano et al. Int. J. Cancer 2008; 123:2616-2625).
Heparinized peripheral blood of healthy volunteers having HLA-A0201 was subjected to centrifugation at 3000 rpm for 20 minutes, thereby removing plasma. Cell pellets were supplemented with HBSS(−) (Wako Pure Chemical Industries, Ltd, Richmond, Va.) to which 5 mM of HEPES (SIGMA, Carlsbad, Calif.) had been added, and were suspended, thereby overlaying the suspension over a Ficoll-paque PREMIUM (GE Healthcare, Ltd., Pittsburgh, Pa.). Then, 400 g of the resulting substance was subjected to centrifugation for 40 minutes, and peripheral blood […] cells (PBMCs) separated as an intermediate layer were collected.
PBMCs were supplemented with CD14 microbeads (Miltenyi Biotec K.K.), and caused to react at 4° C. for 15 minutes. The cells were passed through LS columns (Miltenyi Biotec K.K., Tokyo, Japan), and CD14-positive cells were obtained by using QuadroMACS™ Separator (Miltenyi Biotec K.K., Tokyo, Japan). The rest of the cells were collected and washed, and then supplemented with CD8 microbeads (Miltenyi Biotec K.K., Tokyo, Japan) and allowed to react at 4° C. for 15 minutes. Thereafter, a similar process is performed, thereby obtaining CD8-positive cells. The CD14-positive cells were subjected to differentiation induction to monocyte-derived dendritic cells (Mo-DCs), and CD8-positive cells were temporarily frozen for storage.
Since CD8-positive cells were subjected to antigen stimulation twice, peptide-presenting cells were produced twice accordingly. CD14-positive cells were disseminated in two RepCell plates (CellSeed Inc., Tokyo, Japan), and incubated in a 5% CO2 incubator at 37° C. with a culture solution in which 100 ng/ml GM-CSF (R&D Systems, Minneapolis, Minn.) and 10 ng/ml IL-4 (R&D Systems) were added to an AIM-V (Invitrogen Corporation, Carlsbad, Calif.) culture medium including antibiotic and serum.
First production of peptide-presenting cells was started 5-7 days after the start of incubation. To one of the plates, 0.1 KE/ml OK-432 (Chugai Pharmaceutical Co., Ltd., Tokyo, Japan) was added, and on the next day, cells were collected and inoculated in a 96-well U-bottom plate. Then, 20 μg/ml of assay peptide of one type was added to each half area (48 wells) of the plate, and incubated for one day at 37° C. in a 5% CO2 incubator, thereby producing peptide-presenting cells. Second production was performed similarly on the other plate 12-14 days after the start of incubation.
Peptide-presenting cells in a 96-well plate were irradiated with X rays (30 Gy), and the frozen stored CD8-positive cells were added to all the wells, thereby performing first antigen stimulation. As a culture solution, a solution in which 10 ng/ml IL-7 (R&D Systems, Minneapolis, Minn.) was added to an AIM-V culture medium including antibiotic and serum was used. After incubation for seven days, cells included in supernatant were collected and cocultured with peptide-presenting cells (after X-ray irradiation) obtained by the second production, thereby performing second antigen stimulation in the 96-well plate. At this time, 20 U/mL of IL-2 (Shionogi & Co., Ltd., Florham Park, N.J.) was added to the culture solution. After further incubation for seven days, cells in supernatant including CTL were collected and washed with an AIM-V culture medium including antibiotic and serum to have a concentration of approximately 2×10^5 cells/ml per well, thereby obtaining responder cells for an ELISPOT assay.
T2 cells of stimulator cells for use in an ELISPOT assay were produced by incubating the cells for one night in an AIM-V culture medium supplemented with an assay peptide (20 μg/mL). As stimulator cells of a negative control, only T2 cells were used (without peptides). […]

T2 cells = assay: Human CTL cytotoxic assay; type: cell-based; conditions: CTL line specific to the peptide cocultured with T2 cells at E:T 1:1, 3:1, 10:1; FIG. 2
Procedure: Specifically, assay conditions were set with reference to a method described in a known report (New CFSE-based assay to determine susceptibility to lysis by cytotoxic T cells of leukemic precursor cells within a heterogeneous target cell population. Jedema I. et al. Blood 2004; 103:2677-2682).
As target cells for use in the cytotoxic assay, 1 μM of CellTracker™ Green CMFDA (5-chloromethylfluorescein diacetate) (Invitrogen Corp., Carlsbad, Calif.) was added to T2 cells, and these cells were allowed to react with each other at 37° C. for 15 minutes. The T2 cells were labeled with CMFDA, which is a fluorescent marker, washed with AIM-V, supplemented with assay peptides (20 μg/ml), and incubated for one night. As target cells of a negative control, T2 cells only labeled with a fluorescent marker were used (without peptide addition). […]
Target cells (T) supplemented with peptides used in CTL induction or target cells (T) of a negative control supplemented with no peptides were mixed with effector cells (E) at a cell ratio (E/T ratio) of 10:1, 3:1, and 1:1, and cocultured for one night. […] In an analysis, the proportion of DAPI-negative cells (living cells) in target cells labeled with CMFDA was obtained, and the survival rate of target cells was calculated using incubation conditions (only for target cells) where coculture with effector cells was not performed as 100%.

[2] = tested on: peptide specific CTL through HLA-A02; assay: Mouse CTL induction assay (IFN-γ ELISPOT after peptide immunization); type: in vivo; conditions: CB6F1-Tg (HLA-A0201/H2-Kb) mice, 50 μg peptide/mice, spleen cells two weeks after injection; IFN-γ spots minus negative control peptide
Procedure: The mouse CTL inducing activity with peptides was determined by using mouse immune models. Regarding mice, CB6F1-Tg (HLA-A0201/H2-Kb)A0201 was obtained from Taconic Biosciences, Inc. At most five types of peptide solutions dissolved in DMSO were mixed to produce a PBS solution, and the PBS solution was mixed together with the same amount of MONTANIDE ISA 51VG (SEPPIC), thereby producing an emulsion antigen solution. Then, 50 μL of the antigen solution was used for hypodermic injection into each of two sites at both sides of the belly of the mice (50 μg peptide/mice, N=3-4). Two weeks after the injection, spleen was removed, and spleen cells from which erythrocyte had been eliminated with a solution (BD Pharm Lyse™, Becton, Dickinson and Company, La Jolla, Calif.) were collected as responder cells for an ELISPOT assay. […]
The number of blue spots observed at the well bottom was measured with an ImmunoSpot® S5 Verse Analyzer (Cellular Technology Limited, Shaker Heights, Ohio). […] An average value was obtained for the duplicate well, and the difference from the negative control was calculated in order to obtain the number of spots specific to peptides. The average value and the SD value were calculated by using values for individual mice, and the case having a positive number of differences between the average value and the SD value was determined as positive.

| Sequence | CTL inducibility (peptide specific CTL) | Positive donor number [1] | Donor positive percentage [1] | Survival rate of target cells pulsed with peptide vs not pulsed (T2 cells) | Specific spot number (Ave ± SD) [2] |
| --- | --- | --- | --- | --- | --- |
| ALRWEYGSV | particularly high | 2 | 40% |  |  |
| RALRWEYGSVLPN | particularly high | 1 | 13% | decreased to a degree greater than target cells not pulsed with peptides | 29 ± 22 |
| YLYDRLLRI | particularly high | 6 | 46% | decreased to a degree greater than target cells not pulsed with peptides |  |
